Measurements taken from patent US20180153995A1, “USE OF ANTIMICROBIAL POLYMERS FOR RE-SENSITIZATION OF MICROORGANISMS UPON EMERGENCE OF RESISTANCE TO ANTI-MICROBIAL AGENTS” (Technion Research & Development Foundation Limited, priority 2008, published 2018).
Some entries share one result that the patent states for a list of compounds.

Tested on: Escherichia coli strains
Type: cell-based
Settings: clinical isolates of E. coli; Tables 14 and 15
Procedure: MICs were determined by microdilution susceptibility testing in 96-well plates (by Nunc) using inocula of 10^5 bacteria per ml. Cell populations were evaluated by optical density measurements at 620 nm and were calibrated against a set of standards. Hundred (100) μl of a bacterial suspension were added to 100 μl of culture medium (control) or to 100 μl of culture medium containing various polymer concentrations in 2-fold serial dilutions. Inhibition of proliferation was determined by optical density measurements at 620 nm after an incubation period of 24 hours at 37° C.

Row | SMILES | enhancement of the effect of antibiotics by sub-MIC polymer
1 | CCCCCCCCCCCC(=O)N[C@@H](CCCCN)C(=O)NCCCCCCCC(=O)N[C@@H](CCCCN)C(=O)NCCCCCCCC(=O)N[C@@H](CCCCN)C(=O)NCCCCCCCC(=O)N[C@@H](CCCCN)C(=O)NCCCCCCCC(=O)N[C@@H](CCCCN)C(=O)NCCCCCCCC(=O)N[C@@H](CCCCN)C(=O)NCCCCCCCC(=O)N[C@@H](CCCCN)C(=O)NCCCCCCCC(=O)N[C@@H](CCCCN)C(N)=O [C12K(NC8K)7NH2] | up to 32 folds
2 | CCCCCCCCCCCC(=O)N[C@@H](CCCCN)C(=O)NCCCCCCCC(=O)N[C@@H](CCCCN)C(=O)NCCCCCCCC(=O)N[C@@H](CCCCN)C(=O)NCCCCCCCC(=O)N[C@@H](CCCCN)C(=O)NCCCCCCCC(=O)N[C@@H](CCCCN)C(=O)NCCCCCCCC(=O)N[C@@H](CCCCN)C(N)=O [C12K(NC8K)5NH2] | up to 32 folds
